Patent publication US6391338B1, “System for rendering substantially non-dissoluble bio-affecting agents bio-available” (Biovail Technologies Ltd., priority 1995, dated 2002)
At least one compound was matched to its structure with a doubt left.

Test: Dissolution testing of itraconazole material, simulated gastric fluid, USP Method II
Format: physicochemical
Details: simulated gastric fluid (no pepsin) 900 mL (950 mL in Example 6) and 1% TWEEN 20, 100 rpm

CCC(C)n1ncn(-c2ccc(N3CCN(c4ccc(OCC5COC(Cn6cncn6)(c6ccc(Cl)cc6Cl)O5)cc4)CC3)cc2)c1=O (stereo not shown) [itraconazole]
% dissolution in 10 min: 3.7%
